Measured values: article PMC7259711
Results are given in words; binding and its absence hold for the method and conditions named. Some binding calls cover weakened binding; strength is not graded here.

Sequences of proteins named here, by UniProt entry; tags and fusion partners are left off.
UniProt P38398: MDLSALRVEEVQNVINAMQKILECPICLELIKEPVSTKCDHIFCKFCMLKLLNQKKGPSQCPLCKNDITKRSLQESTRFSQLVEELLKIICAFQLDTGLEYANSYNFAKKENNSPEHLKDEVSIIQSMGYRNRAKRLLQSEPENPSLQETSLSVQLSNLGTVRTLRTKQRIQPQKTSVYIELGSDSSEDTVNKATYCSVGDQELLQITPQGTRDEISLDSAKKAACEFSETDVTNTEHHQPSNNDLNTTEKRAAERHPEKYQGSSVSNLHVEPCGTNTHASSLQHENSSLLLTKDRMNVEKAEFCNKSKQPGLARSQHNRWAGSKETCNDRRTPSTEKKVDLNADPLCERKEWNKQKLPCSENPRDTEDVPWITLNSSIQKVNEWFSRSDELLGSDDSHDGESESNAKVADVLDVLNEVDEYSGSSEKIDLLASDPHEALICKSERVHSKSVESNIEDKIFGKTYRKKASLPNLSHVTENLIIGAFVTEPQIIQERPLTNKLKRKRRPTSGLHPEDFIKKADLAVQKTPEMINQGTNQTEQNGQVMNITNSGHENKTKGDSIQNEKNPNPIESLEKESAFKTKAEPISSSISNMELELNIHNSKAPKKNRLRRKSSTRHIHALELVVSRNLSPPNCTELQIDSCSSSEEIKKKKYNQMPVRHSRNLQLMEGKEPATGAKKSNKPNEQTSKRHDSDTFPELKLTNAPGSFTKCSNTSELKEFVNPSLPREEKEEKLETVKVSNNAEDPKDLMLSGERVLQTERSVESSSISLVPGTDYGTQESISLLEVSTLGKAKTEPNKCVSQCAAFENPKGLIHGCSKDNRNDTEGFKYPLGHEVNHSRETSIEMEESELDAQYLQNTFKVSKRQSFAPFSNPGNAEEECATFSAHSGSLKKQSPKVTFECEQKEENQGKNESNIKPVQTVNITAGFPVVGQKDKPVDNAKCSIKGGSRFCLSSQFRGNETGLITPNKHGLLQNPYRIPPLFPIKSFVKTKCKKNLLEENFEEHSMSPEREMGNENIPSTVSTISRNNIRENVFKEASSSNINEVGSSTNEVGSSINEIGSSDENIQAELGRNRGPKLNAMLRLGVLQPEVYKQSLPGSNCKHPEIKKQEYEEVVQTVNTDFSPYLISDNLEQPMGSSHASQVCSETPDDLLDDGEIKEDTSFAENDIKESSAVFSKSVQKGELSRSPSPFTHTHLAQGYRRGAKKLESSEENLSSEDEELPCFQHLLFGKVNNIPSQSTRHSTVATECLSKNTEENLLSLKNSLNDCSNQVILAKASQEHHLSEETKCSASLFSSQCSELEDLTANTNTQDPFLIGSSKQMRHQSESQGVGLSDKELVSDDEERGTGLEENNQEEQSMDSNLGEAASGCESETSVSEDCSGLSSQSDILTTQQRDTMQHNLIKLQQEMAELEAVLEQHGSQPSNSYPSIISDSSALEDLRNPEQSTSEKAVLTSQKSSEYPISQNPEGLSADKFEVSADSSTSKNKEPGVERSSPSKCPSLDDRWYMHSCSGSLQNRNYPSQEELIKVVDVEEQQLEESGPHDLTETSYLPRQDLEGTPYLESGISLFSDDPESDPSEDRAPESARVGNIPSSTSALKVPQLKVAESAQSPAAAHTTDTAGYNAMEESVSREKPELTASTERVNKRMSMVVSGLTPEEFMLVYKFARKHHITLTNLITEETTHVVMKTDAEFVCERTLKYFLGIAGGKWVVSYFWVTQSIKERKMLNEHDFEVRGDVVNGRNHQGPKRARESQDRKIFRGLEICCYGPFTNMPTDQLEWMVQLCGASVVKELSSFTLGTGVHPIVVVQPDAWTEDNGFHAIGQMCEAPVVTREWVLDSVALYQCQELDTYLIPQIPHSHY
UniProt Q9GZX5: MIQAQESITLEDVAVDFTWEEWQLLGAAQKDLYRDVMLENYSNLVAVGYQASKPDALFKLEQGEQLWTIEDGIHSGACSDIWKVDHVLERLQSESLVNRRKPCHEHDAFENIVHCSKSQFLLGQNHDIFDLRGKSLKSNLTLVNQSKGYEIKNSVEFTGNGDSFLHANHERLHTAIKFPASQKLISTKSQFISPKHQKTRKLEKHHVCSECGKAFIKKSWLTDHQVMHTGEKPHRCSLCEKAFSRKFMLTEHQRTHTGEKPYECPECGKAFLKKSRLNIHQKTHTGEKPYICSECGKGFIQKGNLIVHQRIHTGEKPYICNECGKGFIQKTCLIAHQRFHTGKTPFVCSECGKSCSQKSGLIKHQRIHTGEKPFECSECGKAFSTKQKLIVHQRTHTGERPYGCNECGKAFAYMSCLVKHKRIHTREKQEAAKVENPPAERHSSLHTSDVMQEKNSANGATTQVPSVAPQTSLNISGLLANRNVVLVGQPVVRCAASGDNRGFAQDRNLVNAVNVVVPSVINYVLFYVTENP

Biological target: breast cancer 1 (BRCA1) (human (endogenous in MCF-7)) (UniProt P38398)
Experiment: ChIP/re-ChIP; MCF-7 cells; first round ChIP with BRCA1 antibody, eluted fractions incubated with ZBRK1 antibody; PFKP promoter region in the product verified by qPCR; IgG as negative control

Zinc finger and BRCA1-interacting protein with a KRAB domain 1 (ZBRK1) (from UniProt Q9GZX5 1-532)
binding: binds
